Binding data for 7 molecules are collected here from paper PMC4154660.

Protein sequences, listed by entry. Tags and fused reporters are not part of them. Lines headed by an entry give the natural chain unless they say otherwise; changes in a name come on top.
UniProt F7VLP8: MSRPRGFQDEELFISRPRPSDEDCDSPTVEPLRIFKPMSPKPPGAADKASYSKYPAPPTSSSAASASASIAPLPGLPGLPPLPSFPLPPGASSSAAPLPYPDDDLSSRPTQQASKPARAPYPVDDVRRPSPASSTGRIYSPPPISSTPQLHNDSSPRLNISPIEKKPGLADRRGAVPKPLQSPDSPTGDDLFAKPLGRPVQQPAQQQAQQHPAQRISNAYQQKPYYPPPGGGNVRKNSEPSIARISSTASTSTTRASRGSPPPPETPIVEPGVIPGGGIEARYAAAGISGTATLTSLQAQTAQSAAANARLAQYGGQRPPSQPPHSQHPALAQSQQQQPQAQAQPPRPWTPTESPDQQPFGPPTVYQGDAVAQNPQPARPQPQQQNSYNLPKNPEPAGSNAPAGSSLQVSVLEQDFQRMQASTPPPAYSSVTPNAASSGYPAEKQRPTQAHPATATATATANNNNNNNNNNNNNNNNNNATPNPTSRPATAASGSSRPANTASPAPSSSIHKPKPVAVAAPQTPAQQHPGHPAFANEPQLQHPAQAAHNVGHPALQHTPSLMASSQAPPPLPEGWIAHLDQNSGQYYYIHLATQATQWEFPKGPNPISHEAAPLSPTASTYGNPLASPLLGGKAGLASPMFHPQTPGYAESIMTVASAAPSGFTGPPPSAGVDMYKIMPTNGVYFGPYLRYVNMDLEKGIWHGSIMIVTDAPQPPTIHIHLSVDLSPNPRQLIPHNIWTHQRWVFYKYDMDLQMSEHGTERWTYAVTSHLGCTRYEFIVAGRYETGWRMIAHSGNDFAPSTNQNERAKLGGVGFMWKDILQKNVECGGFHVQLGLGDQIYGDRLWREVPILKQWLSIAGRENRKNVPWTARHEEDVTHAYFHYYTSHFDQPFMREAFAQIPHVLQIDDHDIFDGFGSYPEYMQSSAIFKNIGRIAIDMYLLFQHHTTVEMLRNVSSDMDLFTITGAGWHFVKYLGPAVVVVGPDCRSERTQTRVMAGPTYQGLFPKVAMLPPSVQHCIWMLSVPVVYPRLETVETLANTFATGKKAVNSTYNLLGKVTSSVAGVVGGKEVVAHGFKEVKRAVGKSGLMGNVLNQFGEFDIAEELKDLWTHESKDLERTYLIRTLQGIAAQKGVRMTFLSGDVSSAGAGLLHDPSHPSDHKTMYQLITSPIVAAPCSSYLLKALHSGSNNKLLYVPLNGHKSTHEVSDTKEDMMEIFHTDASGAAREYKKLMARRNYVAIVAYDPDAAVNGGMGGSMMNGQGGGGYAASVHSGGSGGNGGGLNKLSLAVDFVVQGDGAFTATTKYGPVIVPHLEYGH

The chains are these.
B1: Eukaryotic translation initiation factor 3 (SMAC_00095) (protein, UniProt F7VK52 1-474)
chain: MSAFQQAQAPARAIDPDSDVEEEALVNDYKEQVQYEEDDAESTQLSLAAQTDDIQSRLAAAAQPLDYSAGLEVKFSSYDSYCSLFHFILNSEGPVDLEPPSYYWAWDVIDEFIYQFNSFSSYRARIARQGNNEEEITMLRENPNTWGCYSVLNVLYSLIQKSQITEQLAAMKRNEDPAAVAGEYGSKNLYKMLGYFSIIGLLRVHTLLGDFSLALKTLDDIELNKKAMFARVMAAHFTTYYYVGFSYMMMRRYADAIRMFSHILVYVSRTKNFQKNAQYDSITKKNDQMYALIAICVAFQPTRLDDTIHTALREKYGDQLLKLQRGGPEALPIYEELFRTACPKFISPVPPNFDEPEANIDPIEHHLSVFMDEVKTNMFNPTIKSYLRLYTTMDLKKLAGFLEVKPEELRGWLMVNKQRTKQLRWTDGGLLEGELVNVSDLDYALQGDLIHISEAKVGRKLVDWYLRNLSRTYA
B2: Eukaryotic translation initiation factor (SMAC_00367) (protein, UniProt F7VKX3 1-397)
chain: MATDKGLEDIPEGQIESNYDETVDSFDEMNLKPELLRGIYAYGFERPSAIQQRAIMPVIKGHDVIAQAQSGTGKTATFSISVLQKIDPTLKACQALILAPTRELAQQIQKVVVAIGDFMNIECHACIGGTSVRDDMKALQDGPQVVVGTPGRVHDMIQRRFLKTDSMKMFVLDEADEMLSRGFTEQIYDIFQLLPQSTQVVLLSATMPQDVLEVTTKFMREPVRILVKKDELTLEGIKQFYIAVEKEEWKLDTLSDLYETVTITQAVIFCNTRRKVDWLTDKLTARDFTVSAMHGDMDQAQRDLIMKEFRSGSSRVLIATDLLARGIDVQQVSLVINYDLPANRENYIHRIGRGGRFGRKGVAINFVTADDVRMMREIEQFYSTQIEEMPMNVADLI
B3: Pci domain protein (SMAC_00633) (protein, UniProt F7VLP0 1-434)
chain: MATPQLIFVDGTFAELAQEMADFIQVGEQVQPLLEQDKREDALDVIVKASHILNGAPEKDFTPAYNLLIHLVLQSEEPKKYLPTLCGNLLKPITGSPTHGFTLASNALTTIFNLLDKSNPLRFNVFMQIVRFIRQNSQFDLLKPRLKNVEGWLQEWKSDSDSQRKLYVEVSDAANDGGDQEESYFYLLKALATFDRDNQEEVTSDEAQKLSLRALRMAISSPTRFDFNDLRSLPSVQALNDSHPVYSQLLDIFTEQDLEDYNDFRDEHQGWIENEKLDHDKLQRKMRLLTFASLAASTPNREIPYASIAKALQIPDADVEMWTIDVIRSKLVEGRLSQKQKVFLVHRTTYRVFGEKQWRELGTRVDQFKTVVDRLVGVVRKAQSDVEAQREREQQELERKLANAGLDEPQQRGGNRGGRTGGQRQTRPRTDDDD
B4: COP9-2 (protein, UniProt F7VQD5 1-492)
chain: MSDDDFMQDSEEEYDFEYEDEEEEDNGDVDIENKYYNAKQTKTSDPEEALQEFLSIPPLEPEKGDWGFKALKQAIKMEFKLERYQEATDHYEELLTYVKSAVTRNYSEKSIDNMLNYIEKGYDDPKAVQCIEKFYSLTLQCFQSTNNERLWLKTNIKLARLLLDRKDYHAVARKLRELHNACRKPDGTDDPSKGTYSLEIYALEIQMYSETRNNNQLKVLYQKALKVRSAVPHPKIQGVIRECGGKMHMSEENWKEAQSDFFEAFRNYDEAGDLRRIQVLKYLLLTTMLMKSDINPFDSQEMKPYRNDPRISAMTELVDAYQRDDIYRYEDVLQKNTDLLADPFIAENIDEVTRNMRTKGVVKLIAPYTRMRVSWLAEKLRITEPEVMDILSFLIVDGRVKGRIDEHKGMLELESREDADHIQGITVLSEAVGNLFNAVFKSTDGFQAGQGDFMNSMADQIGGGDMGSLDDTMRSMGSGKRGRRVGLTQRAY
B5: PRO4/LEU1 (enzyme, UniProt Q6TWC4 1-368)
chain: MATHNIVVFGGDHCGPEVVVEAIKVLKSIETNSPSAGKFNLQNHLLGGASIDKHHDPLTDEALNAAKAADAVLLGAIGGPEWGTSSTVRPEQGLLKLRKELGTYGNLRPCNFASESLVDSSPLKAEVCRGTDFIVVRELTGGIYFGDRTEDDGSGYACDTEPYSRAEIERIARLAGFLALAKNPPAKVWSLDKANVLATSRLWRKTVTDVISKEFPQLQLEHQLIDSAAMLLVKNPRALNGVVITSNLFGDIISDEASVIPGSIGLLPSASLGGIPDGKGKCNGIYEPIHGSAPDISGKGIVNPVGTILSVAMMLRYSLNLPKEADAVEAAVKAAIDNGTKTKDLGGSATTSDMGNAVVAELEKILKA
B6: Short chain dehydrogenase (SMAC_01191) (protein, UniProt F7VMI7 1-272)
chain: MSVYAVTGVSKGIGFEFLRQLSEDKDNLVIGLVRNKAATEKKVAAELGDRPNVHILHGDLTNYASLKEAAAETAKIVGDRGVDYLVANAGIVPEFDAYGPVSALADKIQEVDAGAAETFQTNVTGQLHLFNLFVPLIKKGKAKKVIAISSGVGDVDLTNQCEIDVGPIYAASKAALNIIVAKFNAEYKKEGILFLSISPGLVEVGRYANATPEQVNGLMGFVGKLASYAPHFKGPITPEESVKAVRSVWEKASIEEGHGGAFISHLGNKQWV
B7: protein kinase C (PKC1, endogenous) (enzyme, UniProt F7W233 1-1146)
chain: MNDEDKVHDISKKIEREKALINAAQAMRQQTNNEQVRSKLDTQMREGRRNLEFFEEKLRELQMRRLGHGVDNMSLGASPMSGSHRQSVDDFEGHGAPTPPPKEGGRGHSSHQSQGSGPLMPASGPYPGGPPDSAVPRARPNYTRLDLIKFDTPHLGPRIQLMLSQIQFKLNVEEQYLKGIEKMVQLYQMEGDKKSKLDAAAKRVESKQKIVLLKQALKRYEELHIDIDVDGPDDDSINLPALRKPLSGTLSIRILAVKDVDHAPLGRFARSPETFIAVKAEDIIVARTRPSRNDRWEAEFHTFPVDKTNEIEFTVYDKPSEHPVPIAMLWVRISDIVEELRRKKIEAEMTSAGWVSADRVGSRAPPPQFPMGTQSPQFAAPPTSPGSQEQNIMIPPQAPPPSQVVSQPVDGWFNLEPYGQIHLSFNFMKESRPQGMDRLGRKGAVRQRKEEVHEMYGHKFVQKQFYNIMRCALCGDFLKYSAGMQCEDCKYTCHTKCYTSVVTKCISKSNAETDPDEEKINHRIPHRFIPFSNLTANWCCHCGYMLPIGSKKNSRKCSECALTAHAQCVHLVPDFCGMSMAVANQILEGIRTQKKTHKDKASSMSERTLRPGSKTSFSSGSIAQTSTYSGSTAYTSIASPEATEAAKLMYSQTTPRPAGPDRTSTSSTTASAAAAAAMAPKHSSQPSQAGSIPDFGGNYGGSGSYGHPESREDEYNAQQQQGYGSPQQRKYNPADYANIGAYSSPPQAQHPQQQQQQQSPQQVSPMYQQNPQTPISKPQPVAPSYDNQVVPSASGVPVPTKKPLPSATDPGTGMRIGLDHFNFLAVLGKGNFGKVMLAETKKSRKLYAIKVLKKEFIIENDEVESIRSEKRVFLIANRERHPFLTNLHACFQTETRVYFVMEYISGGDLMLHIQRGMFGTKRAQFYAAEVCLALKYFHENGVIYRDLKLDNILLTLDGHIKIADYGLCKEDMWYGSTTSTFCGTPEFMAPEILLDKKYGRAVDWWAFGVLIYQMLLQQSPFRGEDEDEIYDAILADEPLYPIHMPRDSVSILQKLLTREPDQRLGSGPTDAQEIMSQPFFRNINWDDIYHKRVQPPFLPQIKSATDTSNFDSEFTSVTPVLTPVQSVLSQAMQEEFRGFSYTADFE

These are yes or no findings as the source states them, for the method shown. In cells and extracts the contact can be indirect. Here binding means that the protein was enriched with, or labelled near, the bait; the list need not be complete.

The test deals with PRO40-FLAG (Sordaria macrospora) (UniProt F7VLP8). The test can be described thus: affinity purification with mass spectrometry; FLAG-AP with MudPIT of PRO40-FLAG from strain T184.2NS11 (Δpro40::pro40-3xFLAG) on anti-FLAG M2 gel, 250 mM NaCl extraction, 150 mM NaCl washes, 3xFLAG peptide elution; wildtype extract as control.
In the case of B1, the binding entry is “binds”.

As for B2, the binding result was “binds”.

For the molecule B3, the binding result was “binds”.

For the molecule B4, the binding entry is listed as “binds”.

For the molecule B5, the binding result is “binds”.

Turning to B6, the binding result was “binds”.

On to B7, for which the binding entry is “binds”.
